Laboratory results as given in article PMC5031922.

By UniProt entry, the sequences of proteins in these tests, tags left out.
UniProt Q96KQ7: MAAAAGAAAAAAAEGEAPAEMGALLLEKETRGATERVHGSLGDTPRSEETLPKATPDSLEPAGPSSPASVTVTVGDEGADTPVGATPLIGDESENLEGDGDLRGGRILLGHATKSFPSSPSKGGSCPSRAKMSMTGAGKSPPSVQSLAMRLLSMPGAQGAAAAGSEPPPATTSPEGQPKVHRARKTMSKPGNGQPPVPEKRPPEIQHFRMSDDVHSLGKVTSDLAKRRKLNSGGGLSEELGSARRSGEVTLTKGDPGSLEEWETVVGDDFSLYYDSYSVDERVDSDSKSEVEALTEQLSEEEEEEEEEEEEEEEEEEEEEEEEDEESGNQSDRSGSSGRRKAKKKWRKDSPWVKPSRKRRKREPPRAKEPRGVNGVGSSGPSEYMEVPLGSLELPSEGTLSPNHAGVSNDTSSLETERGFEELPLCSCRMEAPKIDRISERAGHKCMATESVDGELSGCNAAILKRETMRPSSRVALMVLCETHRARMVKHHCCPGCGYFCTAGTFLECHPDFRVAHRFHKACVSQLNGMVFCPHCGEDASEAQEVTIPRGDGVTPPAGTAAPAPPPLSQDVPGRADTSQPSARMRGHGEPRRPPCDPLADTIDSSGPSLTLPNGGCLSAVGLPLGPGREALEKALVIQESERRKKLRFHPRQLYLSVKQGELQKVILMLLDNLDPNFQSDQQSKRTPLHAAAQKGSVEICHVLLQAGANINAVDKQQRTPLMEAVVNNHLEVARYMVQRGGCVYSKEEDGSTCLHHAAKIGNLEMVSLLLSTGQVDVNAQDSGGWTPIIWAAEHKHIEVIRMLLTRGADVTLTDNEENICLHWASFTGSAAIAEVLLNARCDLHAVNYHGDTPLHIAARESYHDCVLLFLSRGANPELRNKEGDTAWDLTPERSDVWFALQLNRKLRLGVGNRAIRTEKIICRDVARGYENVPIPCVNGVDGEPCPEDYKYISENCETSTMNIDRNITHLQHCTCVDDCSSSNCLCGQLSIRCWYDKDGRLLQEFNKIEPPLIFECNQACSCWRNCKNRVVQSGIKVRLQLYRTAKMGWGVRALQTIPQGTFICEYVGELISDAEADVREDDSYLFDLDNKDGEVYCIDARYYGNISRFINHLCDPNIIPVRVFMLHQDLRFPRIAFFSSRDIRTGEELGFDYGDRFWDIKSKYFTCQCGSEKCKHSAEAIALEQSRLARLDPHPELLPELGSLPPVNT
UniProt Q9H9B1: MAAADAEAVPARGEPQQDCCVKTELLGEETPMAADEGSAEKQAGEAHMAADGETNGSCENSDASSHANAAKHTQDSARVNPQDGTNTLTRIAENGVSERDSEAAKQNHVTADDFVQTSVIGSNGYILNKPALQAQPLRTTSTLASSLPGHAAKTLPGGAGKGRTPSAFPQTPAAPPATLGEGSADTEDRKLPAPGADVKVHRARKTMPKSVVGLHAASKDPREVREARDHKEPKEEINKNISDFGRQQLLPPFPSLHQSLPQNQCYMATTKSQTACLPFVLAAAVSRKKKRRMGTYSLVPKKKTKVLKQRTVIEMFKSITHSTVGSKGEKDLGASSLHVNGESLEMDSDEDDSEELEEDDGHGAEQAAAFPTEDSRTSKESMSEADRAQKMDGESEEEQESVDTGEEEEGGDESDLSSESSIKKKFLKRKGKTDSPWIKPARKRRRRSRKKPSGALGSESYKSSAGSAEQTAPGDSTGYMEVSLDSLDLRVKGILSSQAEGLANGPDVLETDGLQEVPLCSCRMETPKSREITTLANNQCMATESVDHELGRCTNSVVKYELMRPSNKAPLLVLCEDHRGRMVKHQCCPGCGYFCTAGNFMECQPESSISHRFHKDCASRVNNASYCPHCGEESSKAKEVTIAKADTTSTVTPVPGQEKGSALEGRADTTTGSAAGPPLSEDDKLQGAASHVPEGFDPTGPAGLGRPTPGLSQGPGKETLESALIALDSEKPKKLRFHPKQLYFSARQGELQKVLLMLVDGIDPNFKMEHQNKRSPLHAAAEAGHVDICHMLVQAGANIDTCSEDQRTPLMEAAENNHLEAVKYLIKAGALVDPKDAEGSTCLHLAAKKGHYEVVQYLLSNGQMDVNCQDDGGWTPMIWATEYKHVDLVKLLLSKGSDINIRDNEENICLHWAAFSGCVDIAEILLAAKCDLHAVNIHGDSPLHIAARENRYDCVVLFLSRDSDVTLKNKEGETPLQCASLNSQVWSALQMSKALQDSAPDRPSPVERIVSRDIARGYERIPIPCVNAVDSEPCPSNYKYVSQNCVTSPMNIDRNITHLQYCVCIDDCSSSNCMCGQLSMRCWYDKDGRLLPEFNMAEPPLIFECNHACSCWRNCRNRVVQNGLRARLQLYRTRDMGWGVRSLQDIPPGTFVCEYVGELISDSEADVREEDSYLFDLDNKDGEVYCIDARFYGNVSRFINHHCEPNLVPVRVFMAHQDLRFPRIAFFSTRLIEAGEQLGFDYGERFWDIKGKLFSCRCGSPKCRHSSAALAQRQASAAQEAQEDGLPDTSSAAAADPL
UniProt O95785: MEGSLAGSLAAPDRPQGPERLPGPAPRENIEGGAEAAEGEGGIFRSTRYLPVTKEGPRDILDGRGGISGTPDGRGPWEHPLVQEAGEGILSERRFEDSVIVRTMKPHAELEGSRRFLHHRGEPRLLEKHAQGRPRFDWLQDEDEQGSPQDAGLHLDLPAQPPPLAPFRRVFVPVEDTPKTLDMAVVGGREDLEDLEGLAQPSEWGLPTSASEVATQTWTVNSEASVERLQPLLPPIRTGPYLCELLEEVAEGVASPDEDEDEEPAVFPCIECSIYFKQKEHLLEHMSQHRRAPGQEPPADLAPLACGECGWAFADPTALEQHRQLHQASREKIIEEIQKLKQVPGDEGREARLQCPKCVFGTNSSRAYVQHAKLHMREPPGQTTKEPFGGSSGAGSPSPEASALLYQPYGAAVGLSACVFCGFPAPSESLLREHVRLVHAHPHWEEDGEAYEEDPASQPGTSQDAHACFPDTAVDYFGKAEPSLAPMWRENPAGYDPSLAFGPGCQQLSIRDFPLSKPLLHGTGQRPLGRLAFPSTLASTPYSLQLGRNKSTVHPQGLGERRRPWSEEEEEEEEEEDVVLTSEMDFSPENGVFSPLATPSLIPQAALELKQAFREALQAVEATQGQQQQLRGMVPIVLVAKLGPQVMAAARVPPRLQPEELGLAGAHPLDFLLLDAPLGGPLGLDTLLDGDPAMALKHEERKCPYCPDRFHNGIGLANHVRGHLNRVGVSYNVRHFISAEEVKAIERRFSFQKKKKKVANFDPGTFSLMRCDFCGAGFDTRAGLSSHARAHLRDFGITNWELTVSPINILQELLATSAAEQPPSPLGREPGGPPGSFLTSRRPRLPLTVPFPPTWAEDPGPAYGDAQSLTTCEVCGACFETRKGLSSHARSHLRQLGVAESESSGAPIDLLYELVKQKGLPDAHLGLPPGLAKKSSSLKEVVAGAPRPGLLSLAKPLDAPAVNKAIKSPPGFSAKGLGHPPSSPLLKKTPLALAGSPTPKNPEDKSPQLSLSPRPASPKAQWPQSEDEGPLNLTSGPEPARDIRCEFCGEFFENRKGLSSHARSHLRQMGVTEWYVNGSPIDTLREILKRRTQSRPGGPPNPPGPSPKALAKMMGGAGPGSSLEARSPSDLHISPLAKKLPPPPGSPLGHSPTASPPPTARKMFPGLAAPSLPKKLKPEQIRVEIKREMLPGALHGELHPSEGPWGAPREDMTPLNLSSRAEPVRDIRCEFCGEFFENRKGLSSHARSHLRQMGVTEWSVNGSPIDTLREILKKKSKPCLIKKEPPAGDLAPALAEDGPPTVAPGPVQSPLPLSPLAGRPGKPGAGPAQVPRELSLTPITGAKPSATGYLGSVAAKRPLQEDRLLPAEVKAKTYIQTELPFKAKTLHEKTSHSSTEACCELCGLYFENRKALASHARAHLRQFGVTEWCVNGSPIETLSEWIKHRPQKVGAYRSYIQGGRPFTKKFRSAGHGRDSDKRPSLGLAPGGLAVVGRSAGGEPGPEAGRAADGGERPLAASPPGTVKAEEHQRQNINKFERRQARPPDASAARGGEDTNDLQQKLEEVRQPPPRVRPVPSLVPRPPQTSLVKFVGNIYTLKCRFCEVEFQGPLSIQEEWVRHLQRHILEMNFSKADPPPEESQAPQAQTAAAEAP

These substances were tested against T1, GFP-tagged full-length WT ZNF644 (human) (UniProt Q9H582) (assay: affinity purification with mass spectrometry; GFP-tagged bait in Flp-In T-Rex HEK293, induced with 1 ug/ml doxycycline for 24 hr; purified with rabbit anti-GFP antibody).
T1 sequence: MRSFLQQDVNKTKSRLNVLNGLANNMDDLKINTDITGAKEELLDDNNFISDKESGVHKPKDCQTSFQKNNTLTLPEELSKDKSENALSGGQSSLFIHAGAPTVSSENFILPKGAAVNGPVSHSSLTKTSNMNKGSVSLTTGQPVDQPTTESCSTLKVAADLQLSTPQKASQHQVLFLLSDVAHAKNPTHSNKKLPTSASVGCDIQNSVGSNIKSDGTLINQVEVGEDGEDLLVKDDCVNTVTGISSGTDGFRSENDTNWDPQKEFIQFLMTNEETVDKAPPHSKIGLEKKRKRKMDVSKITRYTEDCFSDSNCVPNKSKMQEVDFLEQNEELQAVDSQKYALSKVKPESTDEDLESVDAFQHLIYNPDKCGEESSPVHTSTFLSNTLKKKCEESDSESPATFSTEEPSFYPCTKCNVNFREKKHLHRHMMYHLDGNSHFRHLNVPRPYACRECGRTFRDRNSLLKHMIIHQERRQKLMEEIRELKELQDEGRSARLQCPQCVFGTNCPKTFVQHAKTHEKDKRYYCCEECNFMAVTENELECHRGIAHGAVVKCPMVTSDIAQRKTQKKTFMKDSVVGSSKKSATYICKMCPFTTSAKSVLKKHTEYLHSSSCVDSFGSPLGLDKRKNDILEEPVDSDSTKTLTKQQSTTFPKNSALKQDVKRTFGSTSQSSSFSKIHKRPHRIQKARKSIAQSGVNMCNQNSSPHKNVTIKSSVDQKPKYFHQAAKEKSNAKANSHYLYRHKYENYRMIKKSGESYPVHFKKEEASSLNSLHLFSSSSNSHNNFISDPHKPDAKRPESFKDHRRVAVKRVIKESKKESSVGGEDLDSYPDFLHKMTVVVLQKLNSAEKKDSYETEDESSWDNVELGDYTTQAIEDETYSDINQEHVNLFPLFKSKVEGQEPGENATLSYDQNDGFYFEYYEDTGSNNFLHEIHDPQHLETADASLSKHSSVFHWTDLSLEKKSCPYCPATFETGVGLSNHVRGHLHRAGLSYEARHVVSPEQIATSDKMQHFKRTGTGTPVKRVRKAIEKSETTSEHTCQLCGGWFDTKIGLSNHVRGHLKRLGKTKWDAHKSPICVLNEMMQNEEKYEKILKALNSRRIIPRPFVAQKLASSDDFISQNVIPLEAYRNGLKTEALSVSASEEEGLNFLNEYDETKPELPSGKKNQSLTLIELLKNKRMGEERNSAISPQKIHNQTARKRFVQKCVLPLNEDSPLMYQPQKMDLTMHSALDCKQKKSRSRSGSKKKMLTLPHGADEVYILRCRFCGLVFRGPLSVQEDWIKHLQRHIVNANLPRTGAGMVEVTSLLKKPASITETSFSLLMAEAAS

binding, binds:
G9a (endogenous) (from UniProt Q96KQ7 1-1210) (enzyme), GLP (from UniProt Q9H9B1 1-1298) (enzyme), WIZ (from UniProt O95785 1-1651)

No constants are given. Whether binding was seen depends on the method and setting. In cells and extracts the contact can be indirect. A yes stands for co-enrichment or nearness to the bait. Other partners may have been found. Where a sequence is shown, tags or fusion partners need not be part of it.
